Patent US8329644B2 (Novacta Biosystems Limited, priority 2007, dated 2012)

Assay: peptide synthesis
Conditions: late stage modification step

Substance	step yield [%]
Deoxy-Actagardine B [tris(hydroxymethyl)methylamine]monocarboxamide	69
Deoxyactagardine B (N,N-bis(2-hydroxyethyl)ethylene diamine) monocarboxamide	48
